For at least one compound, name, drawing or mass did not settle the structure.
System: L-type Ca^2+ current (ICa)
Experiment: calcium current (ICa) changes in ventricular myocytes with NCX inhibitor
Assay type: cell-based, canine
Conditions: approximated
Description: In this example the data from publication by Oravecz et.al. was used, where authors have attempted to clarify the underlying mechanism of the limited inotropic action of selective sodium-calcium exchange (NCX) inhibition by a novel inhibitor molecule (ORM-10962) on canine ventricular myocytes. […] The forward mode operation of NCX is considered as the main route of Ca^2+ removal balancing the Ca^2+influx generated by the L-type Ca^2+ current (ICa) and the reverse mode NCX activity. […] These experimental data have been analyzed in the present invention. […] In order to perform time convolution directly, the concentration of ORM-10962 should have been known in the target compartment, but here only the effect size (current measured) has been reported.

Structure (SMILES): O=C(CN1CCC(O)CC1)Nc1ccc(Oc2ccc3c(c2)CCC(c2ccccc2)O3)nc1 (stereo not shown) [ORM-10962]
- kinetic parameter β(t), log trend: ~0.523·ln(t)−0.14

From US20240047019A1, “MODEL-FREE TIME-INVARIANT EVALUATION OF TRANSPORT AND EFFICACY OF CHEMICALS AND DRUGS” (Seqvera Ltd. Oy, priority 2022, published 2024)
